Values joined by “and” are separate entries in the source; they are usually repeats but may differ in a detail not shown here. Identical values can stand only once. The shares of active, inactive and inconclusive entries below differ from those in the screen. For part of these data: Potencies of inconclusive entries are doubtful fits and often do not repeat. Active and inactive are the calls of the source. The call rests on the fitted dose curve; in most records, active means well fitted curve in the direction sought with a large enough effect; inconclusive means small, poorly fitted or top-dose-only effect, or another doubt; inactive means no such curve, though single readings can be large; an effect the other way counts as inactive or inconclusive.
Experiments:
[1] = qHTS of pediatric cancer cell lines to identify multiple opportunities for drug repurposing: Confirmatory screen for U-2 OS cells (AID 1347122); further: potency means the concentration at half of the fitted maximal effect; nearly all actives have a fitted effect of over 65% in size
Summary of the method: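 Cells (500-1,000/well) rested 5 h, then received compounds for 48 h; metabolically active cells were measured by CellTiter-Glo luminescence. Final concentrations spanned up to 46 µM (MIPE, 11-point) or 0.59 nM-46 µM (NPC, 8-point) in primary screens, 11-point in follow-ups.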

The chains behind the UniProt entries cited, without tags or fusion partners. Where a name states a change or a piece, a line headed by the entry shows the natural chain unless it says otherwise.
UniProt Q99828: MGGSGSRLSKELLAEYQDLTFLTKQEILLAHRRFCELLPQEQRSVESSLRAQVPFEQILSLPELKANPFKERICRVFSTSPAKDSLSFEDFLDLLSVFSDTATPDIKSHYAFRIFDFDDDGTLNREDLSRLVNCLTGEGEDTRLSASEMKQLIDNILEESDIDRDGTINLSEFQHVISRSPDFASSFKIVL

[2] = Quantitative High-Throughput drug screen in 47 multiple myeloma cell lines against the NCATS MIPE library collection: RPMI8226_ATCC cell viability assay (AID 1919871); further: potency means the concentration at half of the fitted maximal effect; nearly all actives have a fitted effect of over 30% in size
Summary of the method: (§1)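 ATP-based CellTiter-Glo luminescence after 48 h drug exposure (37 °C, 5% CO2) of 500 myeloma cells per well. DMSO-only wells set 100% viability, media-only wells 0%; MIPE 4.0 library added by pin tool.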

[3] = biological target: Calcium and integrin-binding protein 1 (Homo sapiens) (UniProt Q99828); assay: Confirmatory qHTS for Identification of Calcium Integrin Binding Protein 1 (CIB1) Competitor (AID 1508617); further: potency means the concentration at half of the fitted maximal effect; nearly all actives have a fitted effect of over 65% in size
Summary of the method: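 Binding competition between test compounds and fluorescent alphaIIb peptide for 1 uM CIB1-GST is monitored by FP at 480/540 nm. Final compound range is up to 114 uM; unlabeled peptide serves as reference competitor.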

[4] = qHTS Assay for Identifying Gametocytocidal Compounds (AID 743244); further: potency means the concentration at half of the fitted maximal effect;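 on max response: on the % scale 0 is the no-effect control and ±100 the full control effect; actives lower the fluorescent signal which means gametocytes are killed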; conditions: P. falciparum 3D7 stage III-V gametocytes, alamarBlue, 72 h; max response: stronger effect = lower value
Summary of the method: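 Stage III-V P. falciparum 3D7 gametocytes, 20,000 per well, were exposed to compounds for 72 h at 37C, 5% CO2. AlamarBlue was then added for 24 h and viability was read as fluorescence at Ex 525/Em 598 nm.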

AA1029 = assay: qHTS profiling for inhibitors of Plasmodium falciparum proliferation (AID 504749); further: nearly all actives have a fitted effect of over 60% in size; further: potency means the concentration at half of the fitted maximal effect; conditions: P. falciparum in erythrocytes, SYBR Green DNA, 72 h; series mostly up to 28.7 µM
Summary of the method: (§2)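 SYBR Green fluorescence of parasite DNA, read after lysis and overnight dark incubation, measured growth over 72 h in erythrocyte culture at 0.3% parasitemia and 2.5% hematocrit. Data normalised to DMSO and 0.29 uM artemisinin, with plate-drift correction.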

CP247 = assay: as above; conditions: P. falciparum in erythrocytes, SYBR Green DNA, 72 h; series mostly up to 28.7 µM
Summary of the method: as §2

ECU = assay: as above; conditions: P. falciparum in erythrocytes, SYBR Green DNA, 72 h; series mostly up to 28.7 µM
Summary of the method: as §2

P94_40 = assay: as above; conditions: P. falciparum in erythrocytes, SYBR Green DNA, 72 h; series mostly up to 28.7 µM
Summary of the method: as §2

PAD = assay: as above; conditions: P. falciparum in erythrocytes, SYBR Green DNA, 72 h; series mostly up to 28.7 µM
Summary of the method: as §2

PC15 = assay: as above; conditions: P. falciparum in erythrocytes, SYBR Green DNA, 72 h; series mostly up to 28.7 µM
Summary of the method: as §2

SC27B = assay: as above; conditions: P. falciparum in erythrocytes, SYBR Green DNA, 72 h; series mostly up to 28.7 µM
Summary of the method: as §2

TAB109 = assay: as above; conditions: P. falciparum in erythrocytes, SYBR Green DNA, 72 h; series mostly up to 28.7 µM
Summary of the method: as §2

TAB165 = assay: as above; conditions: P. falciparum in erythrocytes, SYBR Green DNA, 72 h; series mostly up to 28.7 µM
Summary of the method: as §2

[5] = qHTS to identify inhibitors of the type 1 interferon - major histocompatibility complex class I in skeletal muscle: primary screen against the NCATS Pharmaceutical Collection (AID 1347407); conditions: human skeletal muscle cells, IFN-b-induced MHC-I HiBiT luminescence, 24 h; activity change, negative = inhibition: at 45.9 µM (top of the series);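 further: luminescence of HiBiT knocked into endogenous HLA-B as interferon-induced MHC class I level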; further: potency means the concentration at half of the fitted maximal effect; on activity change, negative = inhibition: on the % scale 0 is the no-effect control and ±100 the full control effect
Summary of the method: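 Luminescence from HiBiT-tagged endogenous HLA-B*08:01 served as the read-out of IFN-beta-induced MHC class I in CRISPR-engineered C25cl48 myoblasts. Cells received 4 ng/ml IFN-beta plus compound (high final 46 uM, […]) for 24 h.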

[6] = Quantitative High-Throughput drug screen in 47 multiple myeloma cell lines against the NCATS MIPE library collection: VP6_DJ cell viability assay (AID 1919867); further: potency means the concentration at half of the fitted maximal effect; nearly all actives have a fitted effect of over 40% in size
Summary of the method: as §1

[7] = Quantitative High-Throughput drug screen in 47 multiple myeloma cell lines against the NCATS MIPE library collection: Delta47_JCRB cell viability assay (AID 1918925; further: potency means the concentration at half of the fitted maximal effect; nearly all actives have a fitted effect of over 45% in size); conditions: Delta47 myeloma viability, CellTiter-Glo ATP, 48 h; viability (% of DMSO): at 45.8 µM (top of the series)
Summary of the method: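 Inhibition of cell viability is measured here. Each line was plated at 500 cells per well, treated with MIPE 4.0 drugs, kept 48 hours at 37C, then assayed for ATP content by CellTiter-Glo luminescence.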

[8] = Quantitative High-Throughput drug screen in 47 multiple myeloma cell lines against the NCATS MIPE library collection: OPM1_PLB cell viability assay (AID 1918989); further: potency means the concentration at half of the fitted maximal effect; nearly all actives have a fitted effect of over 40% in size
Summary of the method: as §1

[9] = S16 Schwann cell viability assay (CellTiter-Glo assay) (AID 624031);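 further: native untransfected S16 rat Schwann cells; cellular ATP luminescence as a viability measure; plate controls were DMSO-treated cells for no effect and cell-free wells for full effect; nearly all actives have a fitted effect of over 70% in size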
Summary of the method: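 Parental S16 cells, 24 h compound, 37 °C. ATP-luminescence viability; DMSO = 0% activity, empty wells as reference; curves classified by fit quality and efficacy.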

CP329 = assay: qHTS profiling for inhibitors of Plasmodium falciparum proliferation (AID 504749); further: nearly all actives have a fitted effect of over 60% in size; further: potency means the concentration at half of the fitted maximal effect; conditions: P. falciparum in erythrocytes, SYBR Green DNA, 72 h; series mostly up to 28.7 µM
Summary of the method: as §2

Dd2 = assay: as above; conditions: P. falciparum in erythrocytes, SYBR Green DNA, 72 h; series mostly up to 28.7 µM
Summary of the method: as §2

Q: Which Potency [1] does the source give for O=C1NCCc2[nH]c(-c3ccncc3)cc21 here?
A: The Potency was active: 2.93 µM.

Q: And the Potency [2]?
A: Its Potency is active: 16.6 µM.

Q: With Oc1ccc2c(-c3c(-c4ccccn4)nn4c3CCC4)ccnc2c1 as the compound, how does the Potency [3] read?
A: The Potency was inconclusive: 39.8 µM [inhibitor, partial curve].

Q: For CCS(=O)(=O)Nc1ccc2[nH]c(O)c(C(=Nc3ccc(CN4CCCCC4)cc3)c3ccccc3)c2c1, which Potency [2] is on record?
A: Its Potency is active: 0.332 µM.

Q: Which results are given for [Cl][In]([Cl])[Cl]?
A: max response [4]: inactive: -7.04% and inactive: -5.36%; Potency (AA1029): inactive; Potency (CP247): inconclusive: 17.8 µM [inhibitor, single point]; Potency (ECU): inconclusive: 14.1 µM [inhibitor, single point]; Potency (P94_40): inconclusive: 11.2 µM [inhibitor, single point]; Potency (PAD): inconclusive: 17.8 µM [inhibitor, single point]; Potency (PC15): inconclusive: 11.2 µM [inhibitor, single point]; Potency (SC27B): inconclusive: 12.6 µM [inhibitor, single point]; Potency (TAB109): inconclusive: 15.8 µM [inhibitor, single point]; Potency (TAB165): inconclusive: 11.2 µM [inhibitor, single point]

Q: With CC(=O)O[C@@H]1C(=O)O[C@@H]2[C@H]1OC(=O)[C@@H]2OC(C)=O as the compound, how does the Potency [1] read?
A: Its Potency is inconclusive: 8.27 µM [cytotoxic, partial curve, poor fit].

Q: For C[C@H]1O[C@@H](n2cc(F)c(=O)[nH]c2=O)[C@H](O)[C@@H]1O, which Potency (PC15) is on record?
A: The Potency was “inactive”.

Q: With NC(=O)C1(N2CCCCC2)CCN(CCCN2c3ccccc3CCc3ccc(Cl)cc32)CC1 as the compound, how does the Potency [5] read?
A: Its Potency is active: 23.6 µM.

Q: Which Potency [6] does the source give for CNC(=O)c1ccccc1Sc1ccc2c(C=Cc3ccccn3)n[nH]c2c1 here?
A: Its Potency is active: 14.8 µM.

Q: For O=C1C(O)=C(O)C(=O)C(O)=C1O, which Potency (CP247) is on record?
A: The Potency was “inactive”.

Q: What about the Potency (ECU) of the same compound?
A: Its Potency is “inactive”.

Q: With Cn1sc(=O)n(Cc2ccccc2)c1=O as the compound, how does the Potency [3] read?
A: The Potency was active: 7.94 µM.

Q: Which Potency [7] does the source give for C[C@]12CC[C@@H]3c4ccc(O)cc4CC[C@H]3[C@H]1CC[C@H]2O here?
A: Its Potency is inconclusive: 8.33 µM [cytotoxic, partial curve, poor fit].

Q: And the Potency [8]?
A: Its Potency is active: 16.6 µM.

Q: What does the source list for O=S(=O)(c1cccc2cnccc12)N1CCCNCC1?
A: Potency [5]: inconclusive: 33.3 µM [inhibitor, single point]; Potency [7]: inconclusive: 23.5 µM [cytotoxic, partial curve, poor fit]; Potency [8]: inconclusive: 0.001 µM

Q: With COc1ccc(C[C@@H](C)[C@@H](C)Cc2ccc(OC)c(OC)c2)cc1OC as the compound, how does the Potency [6] read?
A: The Potency was active: 0.833 µM.

Q: Which results are given for CCCNC(C)(C)COC(=O)c1ccccc1?
A: Potency [9]: inactive; max response [4]: inactive: 5.84%; Potency (CP247): inactive; Potency (CP329): inactive

Q: With COC(=O)[C@H]1[C@H]2C[C@@H]3c4[nH]c5cc(OC)ccc5c4CCN3C[C@H]2C[C@@H](OC(=O)COc2ccc(OC)cc2)[C@@H]1OC as the compound, how does the Potency [4] read?
A: Its Potency is inconclusive: 25.1 µM [inhibitor, single point].

Q: Which Potency (AA1029) does the source give for CCC(C(=O)OCCOCCN(CC)CC)c1ccccc1 (configuration not stated) here?
A: The Potency was inconclusive: 11.2 µM [inhibitor, single point].

Q: And the Potency (Dd2)?
A: The Potency was inconclusive: 10 µM [inhibitor, partial curve].

Q: And the Potency (P94_40)?
A: The Potency was inconclusive: 14.1 µM [inhibitor, single point].

Q: And the Potency (SC27B)?
A: The Potency was “inactive”.

Q: What about the Potency (TAB109) of the same compound?
A: Its Potency is inconclusive: 2.24 µM [inhibitor, full curve].

Q: For OCCNC1CCCc2c1[nH]c1ccc(-c3ccccc3)cc21 (configuration not stated), which Potency [6] is on record?
A: Its Potency is active: 8.33 µM.

Q: Which Potency [8] does the source give for NC(=O)Nc1sc(-c2ccc(F)cc2)cc1C(N)=O here?
A: The Potency was active: 0.833 µM.

Q: For COc1ccc(C(=O)c2ccccc2O)c(O)c1, which Potency [9] is on record?
A: Its Potency is “inactive”.

Q: What about the Potency (P94_40) of the same compound?
A: The Potency was inconclusive: 7.08 µM [inhibitor, single point].

Q: What about the Potency (PAD) of the same compound?
A: The Potency was inconclusive: 3.55 µM [inhibitor, single point].

Q: What about the Potency (SC27B) of the same compound?
A: Its Potency is inconclusive: 10 µM [inhibitor, single point].

Q: What about the Potency (TAB165) of the same compound?
A: Its Potency is inconclusive: 7.08 µM [inhibitor, single point].

Q: Which Potency [5] does the source give for OCC(O)CN1CCN(c2ccccc2)CC1 (configuration not stated) here?
A: The Potency was “inactive”.

Q: With Cc1ccc(NC(=O)C2(c3ccc4c(c3)OC(F)(F)O4)CC2)nc1-c1cccc(C(=O)O)c1 as the compound, how does the Potency [7] read?
A: The Potency was active: 0.0526 µM.

Q: Which results are given for CC(=O)OC[C@H]1O[C@@H](n2ncc(=O)[nH]c2=O)[C@H](OC(C)=O)[C@@H]1OC(C)=O?
A: Potency [9]: inactive; Potency (CP329): inactive; Potency (Dd2): inactive; Potency (ECU): inactive

Q: With CC(=O)Nc1ccc(NC(=S)NC(=O)c2ccc(C(C)(C)C)cc2)cc1 as the compound, how does the Potency (AA1029) read?
A: Its Potency is inconclusive: 6.31 µM [inhibitor, partial curve].

Q: What about the Potency (CP329) of the same compound?
A: Its Potency is “inactive”.

Q: And the Potency (Dd2)?
A: The Potency was inconclusive: 14.1 µM [inhibitor, single point].

Q: What about the Potency (PAD) of the same compound?
A: Its Potency is “inactive”.

Q: And the Potency (PC15)?
A: The Potency was inconclusive: 17.8 µM [inhibitor, single point].

Q: And the Potency (TAB109)?
A: The Potency was inconclusive: 11.2 µM [inhibitor, single point].

Q: And the Potency (TAB165)?
A: The Potency was inconclusive: 12.6 µM [inhibitor, partial curve, poor fit].

From PubChem BioAssay (NCATS)
